Consider 78 compounds from PMC12040169 (PLOS Biology, 2025).

Each structure is given as a SMILES string. This is one part of the list.

The experiment concerns T1, CTL2-GFP (C. trachomatis L2/434/Bu, GFP-expressing).
T1 construct: L2/434/Bu, GFP-expressing
More on the design: species or system HeLa; Intracellular C. trachomatis growth in HeLa cells, bulk GFP fluorescence relative to DMSO. Particulars: bulk GFP, single well; 28.5 h, 10 µM; inhibitor.
Consider `NS(=O)(=O)c1ccc(NC(=O)c2ccc(NC(=O)C3COc4ccccc4O3)cc2)cc1` (stereo not drawn) [CBK266573], for which the “% of control remaining” value came out at 135.486%. Then `Cc1nc2ccc(C(=O)NC(C)(C)CN3CCCC(C)C3)cc2[nH]1` (stereo not drawn) [CBK282629], with 143.281%. On to `CCN1C(=O)CC2(C1=O)C(=O)N(Cc1cccc(CN3C(=O)CCC3=O)c1)c1ccccc12` (stereo not drawn) [CBK075508], for which the “% of control remaining” value is 138.819%.

Regarding `CCOC(=O)Cn1ccc2ccnc(-c3cccs3)c21` [CBK285200], the “% of control remaining” value turned out to be 113.3%. In the case of `COc1ccc(-c2cn3ccnc3c(N3CCCCC3CO)n2)cc1OC` (stereo not drawn) [CBK066230], the “% of control remaining” value is given as 134.463%. The value for `CCC(=O)N1CCN(c2ccccc2NC(=O)c2ccc(C#N)cc2F)CC1` [CBK270110] was 116.523%; that for `O=S(=O)(c1ccc(Cl)s1)N1CCN(c2ccccn2)CC1` [CBK270305] was 77.2133%; that for `O=C(O)C[C@@H]1CCN(C(=O)Nc2ccccc2)C[C@@H]1CCN1CCCCC1` [CBK288782] was 117.766%. In the case of `CCS(=O)(=O)Nc1cc(C(F)(F)F)ccc1Cl` [CBK111339], the “% of control remaining” value was found to be 85.7976%. Then `COc1cncc(-c2ccc(N3CCN(c4ccccc4C#N)CC3)nc2)c1` [CBK037738], with 140.383%. As to `SC1=NC2(CCCC2)NN1c1ccc(Cl)cc1` [CBK288391], the “% of control remaining” value was 169.85%.

Consider `Cc1cc(OCCCC(=O)Nc2cccc([N+](=O)[O-])c2)cc(C)c1Cl` [CBK267978], for which the “% of control remaining” value is on record as 121.455%. Then `NS(=O)(=O)c1ccc(NC2=NC(=O)C(CC(=O)Nc3ccc(Br)cc3)S2)cc1` (stereo not drawn) [CBK266616], with 104.852%; and `O=c1nc(NS(=O)(=O)c2ccc(Oc3ccccc3)cc2)c(F)c[nH]1` [CBK067571], with 123.995%; and `CC(C)OC(=O)C(NC(=O)OC(C)(C)C)c1ccccc1` (stereo not drawn) [CBK170399], with 99.2269%.

As for `CCN(CC)C(=O)c1ccsc1NS(=O)(=O)c1cc(Br)ccc1OC` [CBK042327], the “% of control remaining” value is reported as 123.326%.

For the compound `Cc1cc(C)n(C(C)C(=O)N(C)CCn2ccnc2C)n1` (stereo not drawn) [CBK281759], the “% of control remaining” value is given as 151.48%.

As for `O=C(NCC(c1ccccc1)c1ccccc1)N1CCN(c2ccccc2)CC1` [CBK155197], the “% of control remaining” value is on record as 108.318%. Consider `CCc1nc2ccc(C(=O)NCCNC(C)=O)cn2c1N(C)Cc1ccc(NC(C)=O)cc1` [CBK145612], for which the “% of control remaining” value is 100%. Then `CC(=O)N/C(=C/c1ccc([N+](=O)[O-])cc1)C(=O)Nc1cccc(C(=O)O)c1` [CBK264495], with 105.547%; and `COc1ccc(-c2n[nH]cc2/C=N/NC(=O)c2cc(Br)ccc2O)c(OC)c1` [CBK262067], with 111.673%; and `CN(c1ncccc1C#N)C1CCN(CCC(N)=O)CC1` [CBK016793], with 149.885%.

As to `Nn1cnn2c(SCC(=O)c3cccs3)nnc12` [CBK263184], the “% of control remaining” value was 108.391%. The value for `Cc1cc(C)c2c(NCc3ccc(C)o3)n[nH]c2n1` [CBK284621] was 93.5843%.

Regarding `COc1c(C)cc(Br)cc1C(=O)Nc1ccccc1-c1nc2ccccc2s1` [CBK267155], the “% of control remaining” value was found to be 156.825%.

With `CCOc1cccc(C(=O)NN2CCN(C)CC2)c1` [CBK268184], the “% of control remaining” value is recorded as 125.466%. The value for `Cc1ccc(S(=O)(=O)NC(=O)c2cc(C)n(-c3ccc(N(C)C)cc3)c2C)cc1` [CBK296085] was 101.27%.

`C#CCOc1cncc(Cl)n1` [CBK113370]: the “% of control remaining” value came to 123.661%.

As to `COc1cc(NC(=O)c2c(C)[nH]c(=O)[nH]c2=S)cc(C(F)(F)F)c1` [CBK115495], the “% of control remaining” value is listed as 117.125%. The value for `Cc1ccc(-c2ccccc2CC2(C(=O)Nc3cccc(C(N)=O)c3)CCOCC2)c(C)c1` [CBK286423] was 118.134%. Consider `CN(CCN1CCCCC1)C(=O)C1CC(=O)Nc2ccccc21` (stereo not drawn) [CBK282729], for which the “% of control remaining” value is given as 127.989%. As to `O=C1CN(C(=O)CCn2c(C(F)(F)F)cc3cccnc32)CCN1` [CBK284888], the “% of control remaining” value was found to be 140.211%. The value for `COc1ncc(-c2cnc3[nH]c(=O)n(CC4CCOCC4)c3n2)cn1` [CBK064898] was 176.444%. Then `COCCNC(=O)c1nn2c(c1Br)NC(c1cccs1)CC2C(F)(F)F` (stereo not drawn) [CBK307178], with 136.468%.

`O=C(O)c1cc(C(=O)O)n(Cc2ccccc2Cl)n1` [CBK269381]: the “% of control remaining” value came to 134.032%. In the case of `Cc1ccc(C(=O)C2=C(O)C(=O)N(Cc3cccnc3)C2c2cccc(Oc3ccccc3)c2)o1` (stereo not drawn) [CBK264619], the “% of control remaining” value was found to be 119.114%.

With `Cc1ccc(S(=O)(=O)N(CC(=O)N/N=C\c2ccc3c(c2)OCO3)c2cccc3cccnc23)cc1` [CBK262478], the “% of control remaining” value is recorded as 72.08%. Consider `O=C(Nc1cccnc1)N1CCN(CCc2ccccc2)CC1` [CBK158937], for which the “% of control remaining” value was 78.0319%. Regarding `CCCC/C=C/c1cnc(N)c(Nc2ccc(OC)cc2C)n1` [CBK064090], the “% of control remaining” value came to 193.676%. The value for `Cc1cc(C)n(C2CN(C(=O)NCCCOc3cccnc3)C2)n1` [CBK307632] was 121.332%; that for `COc1ccc(C=O)cc1CSc1nc2ccccc2[nH]1` [CBK266209] was 137.52%.

Consider `NC(=O)C1CCN(C2CC(=O)N(c3cccc([N+](=O)[O-])c3)C2=O)CC1` (stereo not drawn) [CBK265555], for which the “% of control remaining” value is listed as 109.308%. Turning to `O=C(C1=C(O)C(=O)N(CCCN2CCOCC2)C1c1ccc(Cl)c(Cl)c1)c1cccs1` (stereo not drawn) [CBK264565], the “% of control remaining” value is listed as 107.819%. Then `Cc1nnc(CN(C)C2CCN(CC3CCCC3)C2)n1C` (stereo not drawn) [CBK304851], with 107.955%; and `COc1cc(-c2cncc(N[C@@H](C)c3ccccc3)n2)cc(OC)c1OC` [CBK065551], with 118.108%.

In the case of `COc1ccc(C(NC(=O)NNC(=O)CCC(=O)c2ccc(F)cc2)c2ccccc2C)cn1` (stereo not drawn) [CBK083659], the “% of control remaining” value was determined as 173.317%. On to `CN(C)C(=O)c1ccc(-c2ccc3c(c2)COC(C2CCN(C(=O)Cc4ccc(C#N)cc4)CC2)O3)cc1` (stereo not drawn) [CBK149760], for which the “% of control remaining” value is reported as 135.16%.

For `CNC(=O)C1(Cc2ccc(-c3cccc(C)c3)cc2)CCN(C(=O)C(C)(C)C)CC1` [CBK285755], the “% of control remaining” value stood at 114.521%. Then `CCOC(=O)C1N(C)C(=O)C(Cc2c(Cl)cccc2Cl)=C(C)N1C` (stereo not drawn) [CBK112643], with 86.7683%; and `COc1cc2c(c(OC)c1OC)C1(CCN(Cc3ccc(S(C)(=O)=O)cc3)CC1)NC(=O)C2` [CBK040014], with 116.423%. Then `Cc1ccc(OCC(=O)NC(=S)Nc2ccc(Cl)c(-c3nc4ncccc4o3)c2)cc1` [CBK263930], with 101.273%. Turning to `COc1ccc(Br)cc1CNCCCN1CCOCC1` [CBK278208C], the “% of control remaining” value is on record as 147.49%.

`Cc1cc(C)n(CCCn2cncc2-c2cnn(C)c2)n1` [CBK281771]: the “% of control remaining” value came to 117.517%. The value for `Cc1ccc(S(=O)(=O)NCCCC(=O)Oc2cc3oc(=O)c4c(c3cc2Cl)CCC4)cc1` [CBK264967] was 100%; that for `O=S(=O)(c1ccc(Cl)c(S(=O)(=O)N2CCOCC2)c1)c1ccc(Cl)c(S(=O)(=O)N2CCOCC2)c1` [CBK261369] was 87.8115%. As to `Cc1nn(C)c2c1c(=O)n(C)c(=O)n2C` [CBK026140], the “% of control remaining” value came to 105.611%. The value for `Cc1nnc(SCc2nnnn2-c2ccccc2)nc1O` [CBK266302] was 149.871%; that for `COc1cc(C(=O)N2CCCC3(CC(=O)c4ccc(C)cc4O3)C2)cc(OC)c1C` (stereo not drawn) [CBK168239] was 79.465%; that for `COc1ccc(C2NCCc3c2[nH]c2ccccc32)cc1CSc1nc2ccccc2s1` (stereo not drawn) [CBK264303C] was 100.77%.

Regarding `Cc1cc(C)c(S(=O)(=O)Nc2nnc(C)s2)c(C)c1` [CBK045497], the “% of control remaining” value is on record as 93.4392%.

As to `CO/N=C(\C(=O)O)c1cn2cccnc2n1` [CBK262252], the “% of control remaining” value came out at 129.539%. Then `Clc1ccccc1-c1nccnc1OCCOc1ccccc1` [CBK107011], with 108.16%; and `Cc1cc(OC(=O)C2CCC(CNC(=O)OC(C)(C)C)CC2)c2c3c(c(=O)oc2c1)CCC3` (stereo not drawn) [CBK083583], with 114.076%. On to `COc1cccc(C(O)CN2CCC3(CC2)CC(O)c2cc(C)ccc2O3)c1` (stereo not drawn) [CBK286338], for which the “% of control remaining” value is recorded as 119.335%. Take `Cc1ccc(-c2nnc(CN3C(=O)C4(CC(=O)N(C)C4=O)c4cc(F)ccc43)o2)cc1` (stereo not drawn) [CBK075453]: the “% of control remaining” value is 144.044%. As for `Cc1ccccc1OCCn1c(CCCO)nc2ccccc21` [CBK266182], the “% of control remaining” value amounted to 123.403%. Consider `CCCCN1C(=S)SC(C)(C)C1N(O)C(=O)C1CCCCC1` (stereo not drawn) [CBK008915], for which the “% of control remaining” value was found to be 117.247%. For the compound `OCCN1CCN(CCCc2ccccc2)CC1` [CBK261872], the “% of control remaining” value stood at 118.808%. The value for `CC(N)(Cc1ccc(Oc2ncc(C(F)(F)F)cc2Cl)cc1)C(=O)O` (stereo not drawn) [CBK161647] was 112.342%; that for `O=[N+]([O-])c1ccc(Oc2cccc(Cl)c2Cl)c(C(F)(F)F)c1` [CBK002594] was 90.0209%.

`CCc1ccc(S(=O)(=O)Nc2cccnc2)cc1` [CBK287782]: the “% of control remaining” value was 95.4337%. On to `CNC(=O)C1(Cc2ccc(-c3ccccc3)cc2)CCN(C(=O)Cc2ccccc2F)CC1` [CBK285768], for which the “% of control remaining” value amounted to 137.912%. The value for `CC1=NN(C(=O)c2ccc(Cl)cc2)C(C)(C)C1` [CBK058904] was 117%; that for `NC(=O)CSc1nnc(COc2ccc(Br)cc2)n1-c1ccccc1` [CBK267277] was 136.155%. For `CN(C)Cc1ccc(C(=O)N2CCCC2(C)C(=O)N(C)C)cc1` (stereo not drawn) [CBK281955], the “% of control remaining” value amounted to 116.906%. In the case of `O=C(NC(Cc1ccsc1)c1cccnc1)C1CCOCC1` (stereo not drawn) [CBK285110], the “% of control remaining” value was found to be 126.36%. Then `CCc1nc2c(OCc3ccc(Cl)cc3)cccn2c1N(C=O)CC(=O)N(C)C` [CBK147518], with 100%; and `Cc1ccc(C(=O)Nc2ccc(C)nc2C)cn1` [CBK200289], with 120.843%.
